PMC8343220, “The selectivity of α‐adrenoceptor agonists for the human α1A, α1B, and α1D‐adrenoceptors” (Pharmacology Research & Perspectives, 2021)

Legend:
Type in all cases: cell-based, Chinese hamster
[1] = system: parental CHO cell line without any transfected receptors; test: ERK1/2‐phosphorylation, parent CHO cells without transfected receptors
[2] = system: parental CHO cell line without any transfected receptors; test: Intracellular calcium mobilization, parent CHO cells without transfected receptors
[3] = system: parental CHO cell line without any transfected receptors; test: ^3H‐cAMP accumulation, parent CHO cells without transfected receptors
[4] = system: parental CHO cell line without any transfected receptors; test: Forskolin‐stimulated cAMP accumulation, parent CHO cells without transfected receptors

COc1ccc(CC(C)NCC(O)c2ccc(O)c(NC=O)c2)cc1 (stereo not shown) [Formoterol]
No response: ERK1/2-phosphorylation % PDBu [1] | Intracellular calcium release % ionomycin [2] | cAMP accumulation % forskolin [3] | cAMP accumulation (in presence of forskolin) % forskolin-stim cAMP [4]
